For one substance, mitochondria area results are on record in patent publication US9963674B2, “Age-modified cells and methods for making age-modified cells” (Memorial Sloan-Kettering Cancer Center, priority 2013, dated 2018).

The subject of this data set is iPSC-derived mDA neuron grafts in NOD-SCID IL2Rgc-null mice. The data set is described as follows: Ultrastructural analysis of grafts by transmission electron microscopy. The data set is classed as in vivo. The following applies: six months, PINK1 grafts. The protocol:
Procedures were performed according to (Milner et al., Methods Mol Biol 793:23-59 (2011)). Briefly, six months following transplantation of human iPSC-derived mDA neurons, mice were overdosed with 150 mg/kg sodium pentobarbital intraperitoneally. The brains were fixed by aortic arch perfusion sequentially with normal saline (0.9%) containing 1000 units/ml of Heparin, 50 ml of 3.75% acrolein and 2% paraformaldehyde in 0.1 M phosphate buffer (PB, pH 7.4), and 200 ml of 2% PFA in PB. The brains were removed and post-fixed with 1.87% acrolein/2% PFA in PB for 30 minutes at room temperature. Coronal tissue blocks were sectioned (40 μm) on a vibrating microtome (Leica Microsystems, Deerfield, Ill.). Selected sections containing the xenograft were pretreated in 1% sodium borohydride. Non-specific binding was blocked with 0.5% BSA 0.1 M Tris-saline (TS, pH 7.6). Primary antibodies (see Table S4) were diluted in 0.1% BSA in TS and incubated overnight at 4° C. Sections were incubated with a biotinylated secondary antibody (Jackson ImmunoResearch, West Grove, Pa.) for 30 minutes at room temperature. […] The number of TH-immunogold particles per μm^2 in 25 dendrites per group and the area (μm^2) quantification of 25 mitochondria per group were performed using ImageJ.

Substance “GFP-progerin: progerin (truncated lamin A) fused to GFP, SEQ ID No. 2, overexpressed via modified-RNA or hSyn lentivirus” had a mitochondria area of 0.167 μm^2.
